Reference: PubChem BioAssay AID1259424 (University of Nebraska Medical Center, 2018)

- Assay: 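Seek colon cancer survival genes behaving like KSR1, using a six-gene signature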 (primary screen)
- Cell system: human HCT116 colon cancer cells
- Reagent: siRNA pool against human genes, 50 nM
- Detection: 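Log2 levels of six mRNAs (branched-DNA multiplex), adjusted by two reference genes and the non-targeting median, then scored against the average KSR1 knockdown pattern as Pearson r and euclidean distance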
- Direction: mean correlation with KSR1 profile and KSR1 correlation: higher = expression change more like KSR1 knockdown; mean distance from KSR1 profile: higher = expression change less like KSR1 knockdown
Shown is a random part of about 14,000 deposited reagents. 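Higher correlation or smaller distance means closer resemblance to KSR1 loss; control wells, including KSR1 knockdowns, recur on many plates.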 No sequences are given here. Not stated in the record: the time to read-out.

| mean correlation with KSR1 profile | mean distance from KSR1 profile | KSR1 correlation, replicate 1 | KSR1 correlation, replicate 2 | KSR1 correlation, replicate 3 | target |
| --- | --- | --- | --- | --- | --- |
| 0.616 | 1.67 | 0.683 | 0.178 | 0.406 | TMEM100 |
| -0.342 | 3.59 | -0.319 | -0.441 | -0.144 | ASTN2 |
| 0.285 | 4.9 | -0.141 | 0.305 | 0.535 | SOX15 |
| -0.452 | 2.15 | -0.53 | -0.325 | -0.398 | FKBP7 |
| -0.478 | 1.3 | -0.424 | -0.469 | -0.466 | TMEM131L |
| 0.709 | 2.54 | 0.684 | 0.621 | 0.785 | PIP4K2A |
| 0.917 | 1.61 | 0.852 | 0.977 | 0.784 | AADAC |
| 0.255 | 1.69 | 0.551 | 0.0399 | 0.277 | NPAS3 |
| -0.65 | 2.72 | -0.592 | -0.78 | -0.681 | ADAR |
| 0.892 | 1.01 | 0.876 | 0.707 | 0.978 | TAS2R13 |
| 0.789 | 1.76 | 0.728 | 0.762 | 0.733 | TAX1BP1 |
| -0.78 | 2.95 | -0.764 | -0.811 | -0.703 | BIVM |
| 0.0649 | 3.09 | 0.122 | 0.32 | -0.0742 | VIPR2 |
| -0.552 | 2.2 | -0.407 | -0.747 | -0.294 | HSD17B6 |
| 0.67 | 2.2 | 0.477 | 0.57 | 0.876 | MAGEA9 |
| -0.777 | 3.19 | -0.799 | -0.707 | -0.171 | GAL3ST1 |
| -0.492 | 2.31 | -0.543 | -0.552 | -0.587 | MCL1 |
| -0.497 | 3.01 | -0.43 | -0.587 | -0.315 | HAAO |
| 0.213 | 1.73 | 0.332 | 0.0917 | 0.0517 | CCDC28A |
| 0.79 | 0.713 | 0.678 | 0.855 | 0.466 | ELAVL3 |
| 0.398 | 1.86 | 0.48 | 0.494 | 0.252 | OR10H1 |
| -0.0833 | 3.74 | -0.182 | 0.0742 | -0.141 | HSPA1L |

The list goes on; the last 3 above are carried over.
| mean correlation with KSR1 profile | mean distance from KSR1 profile | KSR1 correlation, replicate 1 | KSR1 correlation, replicate 2 | KSR1 correlation, replicate 3 | target |
| --- | --- | --- | --- | --- | --- |
| 0.79 | 0.713 | 0.678 | 0.855 | 0.466 | ELAVL3 |
| 0.398 | 1.86 | 0.48 | 0.494 | 0.252 | OR10H1 |
| -0.0833 | 3.74 | -0.182 | 0.0742 | -0.141 | HSPA1L |
| 0.312 | 1.47 | 0.501 | 0.145 | 0.199 | CD69 |
| 0.263 | 2.44 | 0.466 | 0.165 | 0.139 | RBM4 |
| 0.466 | 2.05 | 0.505 | 0.551 | 0.152 | ADGRL4 |
| -0.0417 | 1.8 | -0.3 | 0.0787 | -0.116 | ASB2 |
| 0.15 | 1.49 | 0.142 | 0.461 | 0.038 | CREG1 |
| -0.0086 | 1.78 | -0.392 | 0.0397 | -0.157 | PAAF1 |
| 0.783 | 1.77 | 0.852 | 0.796 | 0.603 | PRKY |
| 0.382 | 1.55 | 0.606 | 0.477 | 0.25 | GLI3 |
| -0.0579 | 0.867 | -0.283 | -0.2 | 0.204 | STX3 |
| 0.691 | 2 | 0.625 | 0.724 | 0.602 | NXT2 |
| -0.0708 | 5.15 | 0.218 | -0.0146 | -0.36 | PTPRR |
| -0.241 | 1.38 | -0.265 | -0.423 | -0.273 | PDSS2 |
| 0.173 | 2.24 | 0.365 | -0.0567 | 0.243 | IQSEC1 |
| -0.401 | 4.28 | -0.1 | -0.626 | -0.367 | TMEM257 (retired record) |
| 0.0229 | 1.34 | 0.747 | -0.0955 | -0.0339 | PRKG2 |
| -0.596 | 2.74 | -0.75 | -0.53 | -0.58 | BCL2L14 |
| -0.313 | 1.43 | -0.483 | -0.323 | 0.0998 | ALG6 |
| 0.266 | 1.07 | 0.432 | 0.386 | 0.108 | PPL |
| -0.099 | 2.39 | 0.0818 | -0.427 | -0.0655 | CLCN2 |
| 0.0435 | 3.59 | -0.328 | -0.455 | 0.431 | TCP10L3 |
| -0.354 | 2.97 | -0.125 | -0.399 | -0.49 | RTRAF |
| 0.476 | 1.11 | 0.552 | 0.553 | 0.252 | CAPNS1 |
| -0.604 | 2.9 | -0.529 | -0.809 | -0.445 | STARD10 |
| -0.00299 | 5.55 | 0.126 | -0.232 | 0.0434 | UBB |
| -0.425 | 2.04 | -0.619 | -0.837 | -0.455 | NPHP3 |
| -0.362 | 2.74 | -0.0364 | -0.0781 | -0.671 | APBA3 |
| 0.443 | 1.76 | 0.605 | 0.348 | 0.333 | SUMO2 |
| 0.409 | 2.16 | 0.25 | 0.239 | 0.435 | HIPK2 |
